Results are given in words; binding and its absence hold for the method and conditions named. In cells and extracts the contact can be indirect. Here binding means that the protein was enriched with, or labelled near, the bait; the list need not be complete.
Target: PARP1 overexpressed from adenovirus (Ad-PARP1) in neonatal rat cardiomyocytes (UniProt P09874)
Experiment: affinity purification with mass spectrometry; NRCMs infected with Ad-PARP1 for 48 h; protein extracts immunoprecipitated with IgG or PARP1 antibody; eluted proteins measured by LC-MS/MS

Sequences of proteins named here, by UniProt entry; tags and fusion partners are left off.
UniProt P09874: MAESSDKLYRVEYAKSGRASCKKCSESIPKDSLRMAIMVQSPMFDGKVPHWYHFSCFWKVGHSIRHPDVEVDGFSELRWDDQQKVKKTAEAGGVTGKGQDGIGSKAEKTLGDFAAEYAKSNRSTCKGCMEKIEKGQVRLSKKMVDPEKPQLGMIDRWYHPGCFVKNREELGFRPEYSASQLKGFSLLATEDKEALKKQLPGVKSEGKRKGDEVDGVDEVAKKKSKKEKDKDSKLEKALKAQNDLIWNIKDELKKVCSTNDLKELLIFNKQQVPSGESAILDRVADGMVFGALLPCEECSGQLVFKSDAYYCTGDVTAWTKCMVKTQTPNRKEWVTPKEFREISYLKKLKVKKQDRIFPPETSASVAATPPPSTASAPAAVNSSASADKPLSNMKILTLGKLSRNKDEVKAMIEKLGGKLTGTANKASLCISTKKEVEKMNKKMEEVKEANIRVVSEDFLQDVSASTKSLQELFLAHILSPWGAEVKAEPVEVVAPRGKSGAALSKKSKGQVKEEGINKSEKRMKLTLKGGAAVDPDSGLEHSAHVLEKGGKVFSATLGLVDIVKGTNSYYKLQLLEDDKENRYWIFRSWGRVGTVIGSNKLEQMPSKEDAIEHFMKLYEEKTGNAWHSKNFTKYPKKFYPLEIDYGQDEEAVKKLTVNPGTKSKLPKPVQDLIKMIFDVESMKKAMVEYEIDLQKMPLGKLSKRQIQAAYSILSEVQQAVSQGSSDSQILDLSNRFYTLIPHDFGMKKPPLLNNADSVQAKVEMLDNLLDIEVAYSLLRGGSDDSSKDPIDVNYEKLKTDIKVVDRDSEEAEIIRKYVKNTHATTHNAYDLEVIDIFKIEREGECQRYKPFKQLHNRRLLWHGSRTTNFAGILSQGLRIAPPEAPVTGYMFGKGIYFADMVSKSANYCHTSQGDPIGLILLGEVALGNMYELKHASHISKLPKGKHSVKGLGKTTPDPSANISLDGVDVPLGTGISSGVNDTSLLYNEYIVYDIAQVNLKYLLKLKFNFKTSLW
UniProt P34058: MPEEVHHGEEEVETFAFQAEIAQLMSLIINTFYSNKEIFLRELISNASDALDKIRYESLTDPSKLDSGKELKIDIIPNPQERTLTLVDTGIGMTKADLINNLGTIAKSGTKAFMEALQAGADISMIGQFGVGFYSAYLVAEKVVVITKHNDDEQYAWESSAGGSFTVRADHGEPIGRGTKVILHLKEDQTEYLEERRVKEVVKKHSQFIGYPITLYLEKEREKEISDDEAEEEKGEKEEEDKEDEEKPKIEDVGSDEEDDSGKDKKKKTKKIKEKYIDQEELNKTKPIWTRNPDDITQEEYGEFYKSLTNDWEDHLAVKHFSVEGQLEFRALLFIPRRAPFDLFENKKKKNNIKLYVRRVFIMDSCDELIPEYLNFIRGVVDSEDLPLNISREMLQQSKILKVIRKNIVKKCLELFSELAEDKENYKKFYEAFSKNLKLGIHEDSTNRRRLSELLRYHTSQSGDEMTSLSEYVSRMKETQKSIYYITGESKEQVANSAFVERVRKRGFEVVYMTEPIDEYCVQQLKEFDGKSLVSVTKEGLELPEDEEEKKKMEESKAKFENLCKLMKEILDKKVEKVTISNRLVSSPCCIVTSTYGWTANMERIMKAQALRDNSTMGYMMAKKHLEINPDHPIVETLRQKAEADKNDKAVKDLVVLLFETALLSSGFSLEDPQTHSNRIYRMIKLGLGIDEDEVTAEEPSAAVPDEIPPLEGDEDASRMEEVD

“Heat Shock Protein 90 Alpha Family Class B Member 1 (HSP90AB1), endogenous in neonatal rat cardiomyocytes (from UniProt P34058 1-724)” was tested, and the binding was “binds”.
